The structures given here were assigned with low confidence; some may be wrong.
Tests used:
[1] = tested on: Male Sprague Dawley rats; test: Oral glucose tolerance test (OGTT) 1; conditions: SD rats; 10 mg/kg oral; glucose 4 g/kg 30 minutes after
[2] = target: CYP3A4 (Homo sapiens, UniProt P08684); test: CYP inhibition (BD GENTEST kit); conditions: 10 μM
[3] = tested on: Male Otsuka Long-Evans Tokushima fatty (OLETF) rats, obese type II diabetic models; test: Oral glucose tolerance test (OGTT) 3
[4] = target: CYP1A2 (Homo sapiens, UniProt P05177); test: CYP inhibition (BD GENTEST kit); format: in vitro ADME; conditions: 10 μM
[5] = tested on: Male Goto-Kakizaki (GK) rats, non-obese type II diabetic models; test: Oral glucose tolerance test (OGTT) 2

By UniProt entry, the sequences of proteins in these tests, tags left out.
UniProt P08684, whole entry: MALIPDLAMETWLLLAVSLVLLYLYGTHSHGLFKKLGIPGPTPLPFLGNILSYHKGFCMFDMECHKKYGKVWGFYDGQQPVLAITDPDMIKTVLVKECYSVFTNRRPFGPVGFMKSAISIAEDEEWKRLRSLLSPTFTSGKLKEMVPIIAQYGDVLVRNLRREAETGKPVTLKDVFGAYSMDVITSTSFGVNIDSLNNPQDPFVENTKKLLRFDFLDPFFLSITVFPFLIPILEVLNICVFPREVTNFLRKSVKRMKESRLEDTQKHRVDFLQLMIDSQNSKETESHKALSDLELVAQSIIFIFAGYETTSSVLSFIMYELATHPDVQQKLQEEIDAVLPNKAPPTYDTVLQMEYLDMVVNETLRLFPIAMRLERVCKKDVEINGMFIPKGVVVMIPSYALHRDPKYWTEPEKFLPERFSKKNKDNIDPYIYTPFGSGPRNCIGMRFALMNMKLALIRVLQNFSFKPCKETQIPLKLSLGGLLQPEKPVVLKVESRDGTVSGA
UniProt P05177, whole entry: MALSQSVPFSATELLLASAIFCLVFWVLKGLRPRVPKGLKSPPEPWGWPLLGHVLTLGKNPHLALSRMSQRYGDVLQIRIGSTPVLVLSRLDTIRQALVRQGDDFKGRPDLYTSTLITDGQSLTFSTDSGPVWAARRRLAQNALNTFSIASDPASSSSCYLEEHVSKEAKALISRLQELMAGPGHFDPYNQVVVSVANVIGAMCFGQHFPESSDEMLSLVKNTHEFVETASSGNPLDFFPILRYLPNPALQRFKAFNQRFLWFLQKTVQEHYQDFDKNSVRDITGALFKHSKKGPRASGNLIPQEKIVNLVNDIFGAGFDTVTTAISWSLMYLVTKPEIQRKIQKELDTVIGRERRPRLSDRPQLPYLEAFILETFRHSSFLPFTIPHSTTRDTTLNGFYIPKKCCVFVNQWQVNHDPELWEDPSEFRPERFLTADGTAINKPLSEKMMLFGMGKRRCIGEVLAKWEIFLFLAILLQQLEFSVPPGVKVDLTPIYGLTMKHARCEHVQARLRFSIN

## Cc1cc(OCCCS(C)(=O)=O)cc(C)c1-c1cccc(COc2ccc3c(c2)OC[C@H]3CC(=O)O)c1
[1]
  % AUC (reduction (%) of blood glucose AUC): 16.2%
[2]
  CYP Inhibition (%) 3A4: 10.0%
[3]; 10 mg/kg, values in text
  blood glucose lowering effect: 31.6%
[3]; Dose 10 mg/kg
  % AUC (reduction (%) of blood glucose AUC): B (25.0-35.0%)
[4]
  CYP Inhibition (%) 1A2: 0.8%
[5]; 10 mg/kg, values in text
  blood glucose lowering effect: 25.3%
[5]; Dose 10 mg/kg
  % AUC (reduction (%) of blood glucose AUC): B (25.0-35.0%)

Reference: patent US10821110B2, “Composite preparation, containing novel 3-(4--(benzyloxy)phenyl)hex-4-inoic acid derivative and another active ingredient, for preventing or treating metabolic diseases” (HYUNDAI PHARM CO., LTD., priority 2014, dated 2020)
